One compound from patent US20250271426A1, “REDUCTION OF BITTER TASTE OF ACTIVE PHARMACEUTICAL INGREDIENTS AND RELATED ASSAYS AND SCREENING METHODS” (Firmenich Incorporated, priority 2022, published 2025) can be followed below.

In the assay the target is T1, T2R receptor SEQ ID NO: 6 (S6) (Homo sapiens, UniProt P59540).
T1 construct: expressed in transfected cells; host or cells: cells expressing a promiscuous G protein (e.g., G16g44)
T1 sequence (P59540 1-309): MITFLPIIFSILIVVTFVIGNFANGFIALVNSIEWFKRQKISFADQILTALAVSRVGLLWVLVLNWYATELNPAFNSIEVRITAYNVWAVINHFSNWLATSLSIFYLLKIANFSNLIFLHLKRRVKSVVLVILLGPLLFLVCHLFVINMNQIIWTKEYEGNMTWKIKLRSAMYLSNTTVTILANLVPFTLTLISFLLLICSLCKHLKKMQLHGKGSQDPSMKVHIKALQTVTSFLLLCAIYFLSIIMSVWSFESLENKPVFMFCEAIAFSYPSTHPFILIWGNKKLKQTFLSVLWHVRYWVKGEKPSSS
Description: FLIPR calcium assay, cells with promiscuous G protein transfected with bitter receptor cDNA. The following applies: responsive if cellular response of >10% over baseline, Fluo4-AM. The format is cell-based. The method, then:
Cells expressing a promiscuous G protein (e.g., G16g44) were transfected with vectors encoding 22 functional bitter receptor cDNAs, with one receptor per transfection. The cells were transfected directly in 384-well format high-density plates and incubated for 28 hours. Later, cells were loaded with the Ca-specific dye Fluo4-AM. After an incubation of 60 minutes, excess dye is washed off, and cells are stimulated with respective bitter agonists while simultaneously recording changes in intracellular fluorescence using a FLIPR instrument.
The above protocol was carried out using 94 different active pharmaceutical ingredients (APIs) that span a wide range of different APIs having a diversity of chemical structures. A particular T2R receptor was identified as being responsive to a particular API if it triggered a cellular response of >10% over baseline.

Turning to `Cc1ccccc1C(OCCN(C)C)c1ccccc1` (stereo not shown) [Orphenadrine], the “S6 positive response of T2R receptor to API” value is recorded as “+ (a “+” to indicate whether a particular T2R receptor showed a positive response to a particular API)”.
